No constants are given. Whether binding was seen depends on the method and setting. Binding calls can cover weak binding; strength is not graded here. For some assays here: In cells and extracts the contact can be indirect.
Experiments:
[1] = molecular target: recombinant P. berghei sporozoite phospholipid scramblase (PbPLS) (P. berghei); assay: ELISA; recombinant PbPLS attached overnight to a Ni-coated plate, blocked with 1% BSA in PBS, mouse hepatocyte lysate added; CPS1 detected with anti-CPS1 antibody and alkaline phosphatase-conjugated secondary antibody; normalised to anti-S-tag antibody binding; only the target purified
[2] = molecular target: recombinant P. berghei sporozoite phospholipid scramblase (PbPLS) (P. berghei); assay: pull-down; recombinant pET-PLS on S-tag agarose beads incubated overnight with primary mouse hepatocyte lysate in 1% Triton X100; eluates blotted with anti-CPS1 or anti-VWA8 antibody; only the target purified

B1: carbamoyl-phosphate synthetase 1 (CPS1), mouse hepatocyte (protein, UniProt Q8C196 39-1500)
chain: LSVKAKTAHIVLEDGTKMKGYSFGHPSSVAGEVVFNTGLGGYPEALTDPAYKGQILTMANPIIGNGGAPDTTARDELGLNKYMESDGIKVAGLLVLNYSNDYNHWLATKSLGQWLQEEKVPAIYGVDTRMLTKIIRDKGTMLGKIEFEGQSVDFVDPNKQNLIAEVSTKDVKVFGKGNPTKVVAVDCGIKNNVIRLLVKRGAEVHLVPWNHDFTQMEYDGLLIAGGPGNPALAQPLIQNVKKILESDRKEPLFGISTGNIITGLAAGAKSYKMSMANRGQNQPVLNITNRQAFITAQNHGYALDNTLPAGWKPLFVNVNDQTNEGIMHESKPFFAVQFHPEVSPGPTDTEYLFDSFFSLIKKGKGTTITSVLPKPALVASRVEVSKVLILGSGGLSIGQAGEFDYSGSQAVKAMKEENVKTVLMNPNIASVQTNEVGLKQADAVYFLPITPQFVTEVIKAERPDGLILGMGGQTALNCGVELFKRGVLKEYGVKVLGTSVESIMATEDRQLFSDKLNEINEKIAPSFAVESMEDALKAADTIGYPVMIRSAYALGGLGSGICPNKETLIDLGTKAFAMTNQILVERSVTGWKEIEYEVVRDADDNCVTVCNMENVDAMGVHTGDSVVVAPAQTLSNAEFQMLRRTSVNVVRHLGIVGECNIQFALHPTSMEYCIIEVNARLSRSSALASKATGYPLAFIAAKIALGIPLPEIKNVVSGKTSACFEPSLDYMVTKIPRWDLDRFHGTSSRIGSSMKSVGEVMAIGRTFEESFQKALRMCHPSVDGFTPRLPMNKEWPANLDLKKELSEPSSTRIYAIAKALENNMSLDEIVRLTSIDKWFLYKMRDILNMDKTLKGLNSDSVTEETLRKAKEIGFSDKQISKCLGLTEAQTRELRLKKNIHPWVKQIDTLAAEYPSVTNYLYVTYNGQEHDIKFDEHGIMVLGCGPYHIGSSVEFDWCAVSSIRTLRQLGKKTVVVNCNPETVSTDFDECDKLYFEELSLERILDIYHQEACNGCIISVGGQIPNNLAVPLYKNGVKIMGTSPLQIDRAEDRSIFSAVLDELKVAQAPWKAVNTLNEALEFANSVGYPCLLRPSYVLSGSAMNVVFSEDEMKRFLEEATRVSQEHPVVLTKFVEGAREVEMDAVGKEGRVISHAISEHVEDAGVHSGDATLMLPTQTISQGAIEKVKDATRKIAKAFAISGPFNVQFLVKGNDVLVIECNLRASRSFPFVSKTLGVDFIDVATKVMIGESIDEKRLPTLEQPIIPSDYVAIKAPMFSWPRLRDADPILRCEMASTGEVACFGEGIHTAFLKAMLSTGFKIPQKGILIGIQQSFRPRFLGVAEQLHNEGFKLFATEATSDWLNANNVPATPVAWPSQEGQNPSLSSIRKLIRDGSIDLVINLPNNNTKFVHDNYVIRRTAVDSGIALLTNFQVTKLFAEAVQKSRTVDSKSLFHYRQYSAGKAA
[1]
  binding: binds
[2]
  binding: binds
